In PubChem BioAssay AID2685 (National Center for Advancing Translational Sciences (NCATS), 2010):
Some of the results follow. These are further read-outs of the screen, such as a control signal, another cell line or another target. No call is given for them. Compounds called inactive in the main read-out are mostly missing here. Words in brackets tell the shape of the fitted curve; partial curves, single points and poor fits give uncertain potencies.

Assay: qHTS Assay for Lipid Storage Modulators in Drosophila S3 Cells;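 on cell number change: cells counted by Cell Tracker Red CMTPX staining in the red channel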
Conditions: BODIPY lipid droplet fluorescence, 18-24 h; for cell number change: measured here: cell count max response, cells fed with added oleic acid
Summary of the method: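 Drosophila S3 cells loaded with oleic acid (400 uM, as added) and compounds at several concentrations; lipid droplets imaged by 488-nm laser-scanning cytometry, 500–530 nm intensity and object ratio to cell channel. Percent activity normalized to 20 uM Triacsin C.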

[1] = measured here: lipid fluorescence (Fed channel) AC50, cells fed with added oleic acid
[2] = measured here: cell number channel AC50, cells fed with added oleic acid

CCOc1ccc(NC(=O)c2ccc(CSc3nnnn3C)cc2)cc1
cell number change: -26.8%

COc1ccccc1N1CCN(c2cc(=O)n(-c3ccccc3Cl)c(=O)[nH]2)CC1
cell number change: 28.5% | AC50 [1]: 8.2 µM [rising, single point]

CC(Oc1ccccc1)C(=O)Nc1cccc([N+](=O)[O-])c1 (centres undefined)
cell number change: -13.5% | AC50 [1]: 0.00461 µM [falling, full curve, poor fit]

CCOc1ccccc1OCC(=O)NCc1ccco1
cell number change: 8.56%

O=S(=O)(Cc1ccc(Cl)cc1)N1CCN(c2ncccn2)CC1
AC50 [1]: 0.0326 µM [rising, full curve]

Cn1c(SCC(=O)NCc2ccco2)nnc1C1CCCC1
cell number change: 21.1% | AC50 [1]: 32.6 µM [rising, partial curve]

O=C(COC(=O)c1ccc2c(c1)OCO2)NC1CCS(=O)(=O)C1 (centres undefined)
cell number change: 2.37%

N#C/C(=N\Nc1ccccc1)C(=N)N1CCCCC1
cell number change: 12% | AC50 [1]: 0.00517 µM [falling, full curve, poor fit]

O=C(O)c1ccccc1Nc1ccc([N+](=O)[O-])cc1
cell number change: 76.3% | AC50 [2]: 29.1 µM [rising, single point] | AC50 [1]: 29.1 µM [rising, single point]

Nc1nnc(-c2ccccc2[N+](=O)[O-])o1
cell number change: 3.97% | AC50 [1]: 3.26 µM [rising, single point]

CC(C)(CSc1nncn1/N=C/c1ccco1)NS(=O)(=O)c1ccc(Cl)cc1
AC50 [1]: 11.6 µM [rising, partial curve]

CCC(C(=O)Nc1cccc(C(F)(F)F)c1)c1ccccc1 (centres undefined)
cell number change: -37.7% | AC50 [2]: 4.11 µM [falling, partial curve]

Cc1c(N=Cc2cc3c(cc2Cl)OCO3)c(=O)n(-c2ccccc2)n1C
cell number change: -9.86% | AC50 [1]: 0.00411 µM [falling, full curve, poor fit]

CCCCSc1nnc2c(n1)OC=Nc1ccccc1-2
cell number change: 24.4% | AC50 [1]: 13 µM [rising, partial curve, poor fit]

Cc1ccccc1[C@@]1(C)ON(c2ccccc2C(F)(F)F)C1=O
cell number change: -86.4% | AC50 [2]: 20.6 µM [falling, partial curve]

O=C(C1CCN(S(=O)(=O)c2cccs2)CC1)N1CCCCC1
cell number change: 0.54% | AC50 [1]: 0.58 µM [rising, single point]

CCc1ccccc1NC(=S)NN
AC50 [1]: 0.116 µM [rising, full curve]

Cc1nn(C)c(C)c1C1C(C#N)=C(N)OC2=C1C(=O)CC(C)(C)C2 (centres undefined)
cell number change: 42.9% | AC50 [2]: 29.1 µM [rising, single point] | AC50 [1]: 18.4 µM [rising, single point]

CCN(c1ccccc1)S(=O)(=O)c1ccc(OC)c(NC(=O)Cc2ccc(F)cc2)c1
cell number change: -8.69% | AC50 [2]: 6.51 µM [rising, single point] | AC50 [1]: 1.46 µM [falling, partial curve]

COc1cc(C2Nc3ccccc3C(=O)N2c2ccc3c(c2)OCCO3)ccc1OCC(C)C (centres undefined)
cell number change: 5.95% | AC50 [1]: 0.517 µM [rising, single point]

CC(=N\NC(=O)c1ccc([N+](=O)[O-])cc1)/C(=N/O)C(=O)Nc1ccccc1
cell number change: -34.5% | AC50 [2]: 32.6 µM [falling, single point]

CC1(C)CC(=O)C2=C(C1)N=C1SCCC(=O)N1C2c1ccc(C(F)(F)F)cc1 (centres undefined)
cell number change: 33.9% | AC50 [2]: 10.3 µM [rising, single point]

COc1ccc(-c2cn3c(C)c(C(=O)NCCN4CCOCC4)sc3n2)cc1
AC50 [1]: 3.26 µM [rising, single point]

C=CCCC(=O)N1CCC(Oc2cccc(C(=O)NCc3ccccn3)c2)CC1
cell number change: 17.9% | AC50 [1]: 0.184 µM [rising, full curve, poor fit]

CC1(C)CC(NC(=O)C2CCCCC2)CC(C)(C)N1
cell number change: -5.22%

Cc1ccc2nc(Cl)c(CN(C(=O)c3cnccn3)C3CCCCC3)cc2c1
cell number change: -0.862% | AC50 [1]: 0.82 µM [rising, single point]

COc1ccc(C(=O)NCCSc2ccccc2)cc1
AC50 [2]: 0.731 µM [rising, single point] | AC50 [1]: 0.58 µM [rising, single point]

Cc1cc(NC(=O)COC(=O)CCCOc2ccc(Cl)cc2C)no1
cell number change: -30% | AC50 [2]: 0.103 µM [falling, full curve, poor fit] | AC50 [1]: 7.31 µM [falling, partial curve]

COc1cc(CCC(=O)OCC(=O)Nc2ccccc2F)cc(OC)c1OC
cell number change: 40.4% | AC50 [2]: 18.4 µM [rising, partial curve, poor fit] | AC50 [1]: 18.4 µM [rising, partial curve, poor fit]

COc1cccc(NC(=O)C2C3C=CC(O3)C2C(=O)O)c1 (centres undefined)
cell number change: -7.41% | AC50 [1]: 2.31 µM [rising, partial curve]

COc1ccccc1OCc1ccc(C(=O)c2ccccc2)cc1
cell number change: -2.92%

CCSC(C)CC1CC(=O)CC(=O)C1 (centres undefined)
cell number change: -62.7% | AC50 [2]: 14.6 µM [falling, partial curve]

COc1ccc(/C(O)=C/c2nc3ccccc3n(-c3ccccc3)c2=O)cc1
cell number change: 94.9% | AC50 [2]: 0.58 µM [rising, full curve] | AC50 [1]: 0.58 µM [rising, full curve]

O=C(NC(=S)NCC1CCCO1)c1ccccc1 (centres undefined)
cell number change: -4.29% | AC50 [1]: 9.2 µM [rising, partial curve, poor fit]

Cc1ccc2nc(/C(C#N)=C\c3ccc([N+](=O)[O-])o3)[nH]c2c1
AC50 [1]: 10.3 µM [falling, single point]

CN(CCC#N)C(=O)CSc1nc2scc(-c3ccccc3)c2c(=O)[nH]1
cell number change: 12.3% | AC50 [1]: 5.17 µM [rising, full curve, poor fit]

O=C(NCc1cccnc1)c1cccc2c1C(=O)N(Cc1cccnc1)C2
AC50 [2]: 1.3 µM [rising, partial curve] | AC50 [1]: 3.26 µM [rising, partial curve]

CCC(C)NC(=O)c1cc(-c2ccc(OC)cc2)on1 (centres undefined)
cell number change: 108% | AC50 [2]: 9.2 µM [rising, partial curve] | AC50 [1]: 6.51 µM [rising, single point]

COc1cc(C(=O)NCC(c2cccs2)N2CCOCC2)cc(OC)c1OC (centres undefined)
cell number change: -4.7% | AC50 [1]: 6.51 µM [rising, single point]

CN(C)c1ccc(/C=N/Nc2ccc(-n3ccnc3)nn2)cc1
cell number change: 38.7% | AC50 [2]: 0.00461 µM [rising, full curve, poor fit]

O=[N+]([O-])c1ccc(N/N=C/c2sc(N3CCOCC3)nc2-c2ccccc2)c(S(=O)(=O)Nc2ccc(Cl)cc2)c1
cell number change: 135% | AC50 [2]: 29.1 µM [rising, partial curve]

c1ccc2c(c1)CNC1(CCCCC1)C2
cell number change: -165% | AC50 [2]: 25.9 µM [falling, partial curve] | AC50 [1]: 23.1 µM [falling, partial curve]

COc1cc(/C=C2\SC(=Nc3ccc(Cl)c(C(=O)O)c3)NC2=O)c(Br)c(Br)c1O
cell number change: -41.5% | AC50 [1]: 0.58 µM [falling, single point]

CCCC(C(=O)NCCC(C)C)N(Cc1ccccc1Cl)C(=O)c1snc(C(N)=O)c1N (centres undefined)
cell number change: -56.4% | AC50 [2]: 10.3 µM [falling, partial curve] | AC50 [1]: 18.4 µM [falling, partial curve]

Cc1ccc(C)c(NC(=S)N/N=C/C(C)c2ccccc2)c1 (centres undefined)
cell number change: 18.3% | AC50 [1]: 0.1 µM [rising, full curve, poor fit]

CCOC(=O)c1c(C)c(C(=O)Nc2ccc(N(C)C)cc2)c(C)n1CC
cell number change: 0.598% | AC50 [2]: 0.731 µM [rising, full curve, poor fit] | AC50 [1]: 0.461 µM [rising, single point]

COc1ccc(CCNC(=O)CNC(=O)c2ccc(Br)o2)cc1OC
cell number change: -51% | AC50 [2]: 23.1 µM [falling, partial curve, poor fit] | AC50 [1]: 23.1 µM [falling, partial curve]

COC(=O)c1cc2c(ccn2-c2ccc(F)cc2)n1Cc1ccc(C#N)cc1
cell number change: 13.2% | AC50 [2]: 6.51 µM [rising, single point] | AC50 [1]: 2.91 µM [falling, full curve]

CC1CCN(C(=O)COc2ncnc3ccccc23)CC1
cell number change: -56% | AC50 [2]: 0.411 µM [falling, full curve] | AC50 [1]: 0.0146 µM [falling, full curve]

CCN(CC)C(=O)C(=O)Nc1cccc(Br)c1
cell number change: 5.6% | AC50 [1]: 3.66 µM [falling, single point]

COc1ccc(-n2nc(C(=O)NCC(=O)N3CCCCCC3)c3ccccc3c2=O)cc1
cell number change: 0.451% | AC50 [1]: 29.1 µM [falling, single point]

COc1ccc(Nc2nc(N3CCCC3)nc3ccccc23)c(OC)c1
cell number change: -188%

NC(=O)c1ccc(N2CCCCCC2)c([N+](=O)[O-])c1
cell number change: -70.6% | AC50 [2]: 20.6 µM [falling, single point]

COc1ccc(Cl)cc1S(=O)(=O)N1CCCC(C(=O)NCc2ccccc2)C1 (centres undefined)
cell number change: -3.04%

COc1ccc(CCNc2ncnc3[nH]ncc23)cc1OC
cell number change: -48.5% | AC50 [2]: 23.1 µM [falling, partial curve, poor fit] | AC50 [1]: 29.1 µM [falling, single point]

O=C1CC(/C=C/c2cccnc2)=Nc2ccccc2N1
AC50 [1]: 0.103 µM [rising, single point]

O=c1c2cc(F)ccc2[nH]c(=S)n1Cc1ccc(F)cc1
cell number change: 24.6%

COc1cc(S(=O)(=O)N2CCCC2)c(C)cc1C
cell number change: -43.8% | AC50 [2]: 29.1 µM [falling, single point]

NC(=O)c1ccc(NC(=O)COC(=O)c2ccccc2Nc2ccccc2)cc1
cell number change: 25.4%

CCc1nc2ccc(C(=O)NCc3ccco3)cc2nc1CC
cell number change: 14.1% | AC50 [1]: 2.06 µM [rising, partial curve]
